# Test results taken from patent publication US7906486B2, “Method of treating or preventing tissue deterioration, injury or damage due to disease of mucosa” (SciClone Pharmaceuticals, Inc., priority 2007, dated 2011).
# “And” between values parts separate entries of the source, which are not always exact repeats. Equal values may be shown once. Further values from the same series stand in other lists.
# Test: Weights and survival (Example 3, SCI-03)
# Format: in vivo, Syrian Golden Hamsters
# Details: individual animals
# Experimental: All animals were weighed daily and their survival recorded, in order to assess possible differences in animal weight among treatment groups as an indication for mucositis severity and/or possible toxicity resulting from the treatments.
# There were no significant differences in weight changes between study groups. The mean daily percent weight change data was evaluated. The saline treated control hamsters gained an average of 76.3% of their starting weight during the study. Hamsters in the group receiving SCV-07 at 100 μg/kg on days −1 to 29 gained an average of 80.7% of their starting weight during the study. Hamsters in the group receiving SCV-07 at 100 μg/kg on days of radiation only gained an average of 66.3% of their starting weight during the study. Hamsters in the group receiving SCV-07 at 100 μg/kg on day −1, day 4, day 5 and days 10-29 gained an average of 69.7% of their starting weight during the study. The significance of these differences was evaluated by calculating the area-under-the-curve (AUC) for the weight gain of each animal, and then comparing the different treatment groups using a One-Way ANOVA test.
smiles,measurement,setting,value
"N[C@H](CCC(=O)N[C@@H](Cc1c[nH]c2ccccc12)C(=O)O)C(=O)O [SCV-07, γ-D-glutamyl-L-tryptophan]",Animal weight,"Group 2 (SCV-07 day −1 to day 29), day 0",86 and 82 (2×) and 84 and 77 (2×) and 87 (2×) and 85 and 70
same,Animal weight,"Group 2 (SCV-07 day −1 to day 29), day 1",89 (2×) and 82 and 84 and 76 (2×) and 88 and 83 and 87 and 74
same,Animal weight,"Group 2 (SCV-07 day −1 to day 29), day 2",78 and 83 and 87 (2×) and 79 and 92 and 91 and 80 and 88 and 76
same,Animal weight,"Group 2 (SCV-07 day −1 to day 29), day 3",77 and 86 and 88 (2×) and 79 (2×) and 95 and 94 and 90 and 75
same,Animal weight,"Group 2 (SCV-07 day −1 to day 29), day 4",80 and 85 and 88 and 82 and 95 and 93 and 87 and 79 and 91 and 76
same,Animal weight,"Group 2 (SCV-07 day −1 to day 29), day 5",83 and 88 and 92 and 84 (2×) and 98 and 97 and 91 and 94 and 79
same,Animal weight,"Group 2 (SCV-07 day −1 to day 29), day 6",88 and 92 and 94 and 87 and 102 (2×) and 95 and 86 and 98 and 79
same,Animal weight,"Group 2 (SCV-07 day −1 to day 29), day 7",88 and 91 and 93 (2×) and 87 and 102 and 99 and 85 and 100 and 84
same,Animal weight,"Group 2 (SCV-07 day −1 to day 29), day 8",89 and 90 and 94 and 87 (2×) and 103 and 99 and 95 and 98 and 84
same,Animal weight,"Group 2 (SCV-07 day −1 to day 29), day 9",94.5 and 93.4 and 98.3 and 90.6 and 108.5 and 103.5 and 99.7 and 88.2 and 102.3 and 88.6
same,Animal weight,"Group 2 (SCV-07 day −1 to day 29), day 10",95 and 92 (3×) and 100 and 108 and 105 and 97 and 104 and 90
same,Animal weight,"Group 2 (SCV-07 day −1 to day 29), day 11",98 and 95 and 99 and 96 and 110 and 107 and 101 and 92 and 104 and 94
same,Animal weight,"Group 2 (SCV-07 day −1 to day 29), day 12",100 and 96 and 103 and 97 (2×) and 114 and 111 and 104 and 95 and 107
same,Animal weight,"Group 2 (SCV-07 day −1 to day 29), day 13",103 and 97 (2×) and 104 and 115 and 111 and 106 and 94 and 108 and 98
same,Animal weight,"Group 2 (SCV-07 day −1 to day 29), day 14",104 and 96 and 106 and 98 (2×) and 116 and 109 and 105 and 95 and 108
same,Animal weight,"Group 2 (SCV-07 day −1 to day 29), day 15",104 and 97 and 105 and 99 and 117 and 108 (2×) and 107 and 94 and 98
same,Animal weight,"Group 2 (SCV-07 day −1 to day 29), day 16",105 and 99 (3×) and 107 and 117 and 109 and 106 and 96 and 111
same,Animal weight,"Group 2 (SCV-07 day −1 to day 29), day 17",108 (2×) and 100 and 101 and 120 and 111 and 107 and 97 and 110 and 103
same,Animal weight,"Group 2 (SCV-07 day −1 to day 29), day 18",108 and 98 (2×) and 109 and 103 and 120 and 113 (2×) and 118 and 106
same,Animal weight,"Group 2 (SCV-07 day −1 to day 29), day 19",113 and 104 and 114 and 107 and 124 and 116 and 122 and 102 and 115 and 108
same,Animal weight,"Group 2 (SCV-07 day −1 to day 29), day 20",114 and 105 and 116 (2×) and 109 and 126 and 117 and 121 and 103 and 111
same,Animal weight,"Group 2 (SCV-07 day −1 to day 29), day 21",116 and 107 and 117 and 110 and 127 and 122 and 126 and 104 and 119 and 118
same,Animal weight,"Group 2 (SCV-07 day −1 to day 29), day 22",117 (2×) and 108 and 119 and 112 and 127 (2×) and 123 and 105 and 120
same,Animal weight,"Group 2 (SCV-07 day −1 to day 29), day 23",120 (3×) and 111 and 114 and 130 (2×) and 126 and 108 and 118
same,Animal weight,"Group 2 (SCV-07 day −1 to day 29), day 24",122 and 113 and 124 and 116 and 132 and 128 and 130 and 111 and 123 and 120
same,Animal weight,"Group 2 (SCV-07 day −1 to day 29), day 25",123 and 113 and 124 and 117 and 132 (2×) and 128 and 110 and 126 and 121
same,Animal weight,"Group 2 (SCV-07 day −1 to day 29), day 26",129 (3×) and 117 and 121 and 137 and 132 and 136 and 114 and 124
same,Animal weight,"Group 2 (SCV-07 day −1 to day 29), day 27",131 and 116 and 130 (2×) and 124 and 138 and 133 and 137 and 115 and 126
same,Animal weight,"Group 2 (SCV-07 day −1 to day 29), day 28",134 and 118 and 130 and 124 and 139 and 135 and 140 and 114 and 133 and 131
same,Animal weight,"Group 2 (SCV-07 day −1 to day 29), day 29",132 and 118 and 130 and 123 and 139 and 134 and 140 and 114 and 133 and 127
same,Animal weight,"Group 2 (SCV-07 day −1 to day 29), day 30",136 and 122 and 137 (2×) and 128 and 142 and 138 and 144 and 120 and 133
same,Animal weight,"Group 2 (SCV-07 day −1 to day 29), day 31",138 (3×) and 124 and 131 and 143 and 142 and 146 and 121 and 139
same,Animal weight,"Group 2 (SCV-07 day −1 to day 29), day 32",141 (2×) and 126 and 120 and 143 and 142 and 147 and 122 and 139 and 138
same,Animal weight,"Group 2 (SCV-07 day −1 to day 29), day 33",146 and 131 and 136 and 145 and 147 and 148 and 152 and 125 and 144 (2×)
same,Animal weight,"Group 2 (SCV-07 day −1 to day 29), day 34",145 (2×) and 130 and 136 and 146 (2×) and 147 (2×) and 153 and 125
same,Animal weight,"Group 2 (SCV-07 day −1 to day 29), day 35",146 (2×) and 131 and 136 and 145 and 147 (2×) and 148 and 154 and 127
same,Animal weight,"Group 2 (SCV-07 day −1 to day 29), day −1",82 (3×) and 80 and 73 and 83 and 81 and 76 and 84 and 69
same,Animal weight,"Group 3 (SCV-07 on days of radiation 0-3 and 6-9), day 0",92 and 78 and 98 and 82 (2×) and 84 and 89 and 87 and 79 and 76
same,Animal weight,"Group 3 (SCV-07 on days of radiation 0-3 and 6-9), day 1",92 and 79 (2×) and 95 and 82 and 86 and 87 and 83 and 78 and 73
same,Animal weight,"Group 3 (SCV-07 on days of radiation 0-3 and 6-9), day 2",97 and 80 (2×) and 102 and 85 and 88 (2×) and 84 and 81 and 74
same,Animal weight,"Group 3 (SCV-07 on days of radiation 0-3 and 6-9), day 3",94 and 80 and 104 and 82 and 84 and 86 and 89 and 88 and 83 and 76
same,Animal weight,"Group 3 (SCV-07 on days of radiation 0-3 and 6-9), day 4",95 and 82 and 102 and 81 and 86 (2×) and 88 and 85 and 83 and 74
same,Animal weight,"Group 3 (SCV-07 on days of radiation 0-3 and 6-9), day 5",100 and 85 (2×) and 108 and 88 (2×) and 89 and 93 and 87 and 77
same,Animal weight,"Group 3 (SCV-07 on days of radiation 0-3 and 6-9), day 6",104 and 89 (2×) and 111 and 88 and 90 and 91 and 97 and 94 and 78
same,Animal weight,"Group 3 (SCV-07 on days of radiation 0-3 and 6-9), day 7",106 and 90 (2×) and 115 and 89 (2×) and 91 and 97 and 93 and 78
same,Animal weight,"Group 3 (SCV-07 on days of radiation 0-3 and 6-9), day 8",103 and 88 (3×) and 113 and 93 and 90 and 97 and 94 and 78
same,Animal weight,"Group 3 (SCV-07 on days of radiation 0-3 and 6-9), day 9",110.6 and 94.6 and 117.4 and 92.6 and 94.4 and 93.7 and 101.7 and 97.5 and 91.6 and 79.2
same,Animal weight,"Group 3 (SCV-07 on days of radiation 0-3 and 6-9), day 10",111 and 95 (2×) and 119 and 93 and 96 and 103 and 98 and 94 and 80
same,Animal weight,"Group 3 (SCV-07 on days of radiation 0-3 and 6-9), day 11",112 and 96 and 122 and 95 and 99 (2×) and 97 and 104 and 94 and 81
same,Animal weight,"Group 3 (SCV-07 on days of radiation 0-3 and 6-9), day 12",102 and 110 and 125 and 97 and 101 and 98 and 103 and 99 and 96 and 84
same,Animal weight,"Group 3 (SCV-07 on days of radiation 0-3 and 6-9), day 13",114 and 101 (2×) and 124 and 98 and 103 and 109 and 105 and 96 and 84
same,Animal weight,"Group 3 (SCV-07 on days of radiation 0-3 and 6-9), day 14",113 and 100 (3×) and 125 and 99 and 112 and 103 and 97 and 84
same,Animal weight,"Group 3 (SCV-07 on days of radiation 0-3 and 6-9), day 15",112 and 100 and 126 and 97 and 102 and 101 and 111 and 105 and 96 and 82
same,Animal weight,"Group 3 (SCV-07 on days of radiation 0-3 and 6-9), day 16",113 (2×) and 103 and 129 and 97 and 101 and 100 and 106 and 99 and 85
same,Animal weight,"Group 3 (SCV-07 on days of radiation 0-3 and 6-9), day 17",118 and 106 (2×) and 132 and 100 and 104 and 101 and 115 and 102 and 86
